Here are results for 39 compounds from the supplement of paper PMC12009310.

Structures can show the parent of a compound that is named as a salt. ± gives the standard deviation of the averaged measurements. This is one part of the list. Part of the spread comes from offsets between plates or batches.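 The cells are a mouse kidney inner medullary collecting duct line, silenced either for the ciliary gene Rpgrip1l or with a non-targeting control siRNA.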 Where a SMILES comes first, the peptide text is derived from it. [ ]: non-standard residue; d: D form.

One experiment relates to mIMCD3. As to the kind of experiment: robust z score of cell number vs plate controls; higher = more cells (less cytotoxic). As to conditions: 10 µM; 48 h; siRNA: siRpgrip1l.
For `O=C(O)C1=CCCNC1` [Guvacine hydrochloride], the “robust z score of cell number” value came to 12.5 ± 17.
Still for that read-out and setting: for `CN(C)C/C=C(/c1ccc(Br)cc1)c1cccnc1` [Zimelidine dihydrochloride] the value was -1.94 ± 3.3; for `Oc1ccc(-c2nc(-c3ccc(F)cc3)c(-c3ccncc3)[nH]2)cc1`, -235 ± 160; for `CCCCCCCCCCCC1=C(O)C(=O)C=C(O)C1=O` [Embelin], -2.67 ± 3.1.
Turning to `CCCCOC(=O)c1cc2c(cn1)[nH]c1ccccc12`, the “robust z score of cell number” value was -37 ± 27.
Same read-out and setting: for `COc1ccc(Nc2nccc(NCCO)n2)cc1` [Cardiogenol C hydrochloride] the value was -5.86 ± 1.2; for `C=CCc1cccc(/C=N/NC(=O)CN2CCN(Cc3ccccc3)CC2)c1O`, -32.5 ± 10; for `CC[C@H](C)C(=O)O[C@H]1C[C@H](O)C=C2C=C[C@H](C)[C@H](CC[C@@H](O)C[C@@H](O)CC(=O)O)[C@H]21` [Pravastatin sodium salt], -3.8 ± 2.8.
Still for that read-out and setting: for `CCOC(=O)C1=C(COCCN)NC(C)=C(C(=O)OC)C1c1ccccc1Cl` (stereo not drawn) [Amlodipine besylate] the value was -32.9 ± 10; for `CN1CCN(C2=Nc3cc(Cl)ccc3Nc3ccccc32)CC1` [Clozapine], -3.85 ± 0.33; for `O=C1Cc2c([nH]c3ccc(Br)cc23)-c2ccccc2N1` [Kenpaullone], -307 ± 220.
On the same count and under the same terms, next, `Cc1ccc(O)c(N=Nc2ccccc2)n1`: -8.37 ± 3.6; `Cc1c(CC(C)(C)C(=O)O)n(Cc2ccc(Cl)cc2)c2ccc(F)cc12`: -44.1 ± 40.
As for `CC[N+](CC)(CC)CCOc1ccc(/C=C/c2ccccc2)cc1`, the “robust z score of cell number” value was -254 ± 180.
For the compound `CCOC(=O)c1ccc(OC(=O)CCCCCNC(=N)N)cc1` [Gabexate mesylate], the “robust z score of cell number” value was found to be 1.52 ± 2.5.
As for `CC(=O)NCC(=O)N[C@H](CCC(=O)O)C(=O)O` [N-Acetylglycyl-D-glutamic acid] (Ac-Gly-[dE]-OH), the “robust z score of cell number” value came out at 4.81 ± 2.8.
As to `Cc1ccc(/C=C2\CNC/C(=C\c3ccc(C)cc3)C2=O)cc1`, the “robust z score of cell number” value is -32.7 ± 10.
On to `CCc1cc(-c2n[nH]c(C)c2-c2ccc3c(c2)OCCO3)c(O)cc1O`, for which the “robust z score of cell number” value is -29.5 ± 15.
On the same count and under the same terms, next, `CNc1cc(OC)c(C(=O)NC2CCN(Cc3ccccc3)C2C)cc1Cl` (stereo not drawn) [Nemonapride]: -35.4 ± 31; `COc1ccc2[nH]cc(CCNC(C)=O)c2c1` [Melatonin]: -7.39 ± 7.1.
Turning to `CCCCN1CCC(CCC(=O)c2cc(Cl)c(N)cc2OC)CC1`, the “robust z score of cell number” value is -12.8 ± 0.47.
On the same count and under the same terms, next, `CC(C)NCC(O)COc1cccc2ccccc12` (stereo not drawn) [Propranolol hydrochloride]: -4.42 ± 0.2.
The same measure, in the same setting: next, `Cn1ccc2cc(NC(=O)Nc3cccnc3)ccc21`: -35.5 ± 26; `COc1ccc(NC(=O)c2ccc(-c3ccc(-c4noc(C)n4)cc3C)cc2)cc1N1CCN(C)CC1`: -192 ± 220.

The same experiment, now with this note: 10 µM; 48 h; siRNA: siScr.
Regarding `CC(C)NCC(O)c1ccc2ccccc2c1` (stereo not drawn) [Pronethalol hydrochloride], the “robust z score of cell number” value was -4.74 ± 0.33.
The same measure, in the same setting: for `O=c1[nH]ccc2c(S(=O)(=O)N3CCCNCC3)cccc12` [HA 1100 hydrochloride] the value was 1.31 ± 0.083.
Take `O=C(CCCCCN1C(=O)c2cccc3cccc(c23)C1=O)NO` [Scriptaid]: the “robust z score of cell number” value was -27.6 ± 4.7.
Same read-out and setting: for `CN(C(=O)c1c(O)c2ccccc2n(C)c1=O)c1ccccc1` [Linomide] the value was 2.41 ± 3; for `CC12CC3CC(C)(C1)CC(N)(C3)C2` [Memantine hydrochloride], 3.57 ± 2.8.
Still for that read-out and setting: next, `CC(Oc1ccc(O)cc1)(P(=O)(O)O)P(=O)(O)O`: -5.3 ± 1.5; `CN(C)C(=O)C(CCN1CCC(O)(c2ccc(Cl)cc2)CC1)(c1ccccc1)c1ccccc1` [Loperamide hydrochloride]: -46.4 ± 2.8; `COc1nc(C)nc(Cl)c1NC1=NCCN1` [Moxonidine hydrochloride]: -3.4 ± 6.7.
Still for that read-out and setting: next, `CC(C(=O)O)c1ccc(-c2ccccc2)c(F)c1` (stereo not drawn) [Flurbiprofen]: -30.2 ± 1.2; `CCS(=O)(=O)N(C)[C@H]1c2cc(C#N)ccc2OC(C)(C)[C@@H]1O` (racemic) [Chromanol 293B]: -1.51 ± 4.1.
Consider `COC(=O)/C=C/c1cc(O)ccc1O` [Methyl 2,5-dihydroxycinnamate], for which the “robust z score of cell number” value is -124 ± 110.
On the same count and under the same terms, next, `O=C(O)CCCc1ccccc1` [sodium 4-Phenylbutyrate]: 1.25 ± 2.7.
On the same count and under the same terms, next, `CC(C)C(=O)c1c(C(C)C)nn2ccccc12` [Ibudilast]: -8.52 ± 6.7.
The same measure, in the same setting: next, `CC(=Cc1ccc(C(=O)O)cc1)c1ccc2c(c1)C(C)(C)CCC2(C)C`: -31.4 ± 6.6; `N#Cc1ccc(NCCNCC(=O)N2CCC[C@H]2C#N)nc1` [NVP DPP 728 dihydrochloride]: -1.51 ± 4; `O=C(O)C1=CCCNC1` [Guvacine hydrochloride]: -0.649 ± 13.
In the case of `CN(C)C/C=C(/c1ccc(Br)cc1)c1cccnc1` [Zimelidine dihydrochloride], the “robust z score of cell number” value is -3.73 ± 4.5.
Take `Oc1ccc(-c2nc(-c3ccc(F)cc3)c(-c3ccncc3)[nH]2)cc1`: the “robust z score of cell number” value was -28.8 ± 6.5.
Same read-out and setting: for `CCCCCCCCCCCC1=C(O)C(=O)C=C(O)C1=O` [Embelin] the value was -0.676 ± 2; for `CCCCOC(=O)c1cc2c(cn1)[nH]c1ccccc12`, -29.6 ± 22; for `COc1ccc(Nc2nccc(NCCO)n2)cc1` [Cardiogenol C hydrochloride], -6.11 ± 3.
Still for that read-out and setting: next, `C=CCc1cccc(/C=N/NC(=O)CN2CCN(Cc3ccccc3)CC2)c1O`: -144 ± 110; `CC[C@H](C)C(=O)O[C@H]1C[C@H](O)C=C2C=C[C@H](C)[C@H](CC[C@@H](O)C[C@@H](O)CC(=O)O)[C@H]21` [Pravastatin sodium salt]: -3.61 ± 0.24; `CCOC(=O)C1=C(COCCN)NC(C)=C(C(=O)OC)C1c1ccccc1Cl` (stereo not drawn) [Amlodipine besylate]: -144 ± 110.
On the same count and under the same terms, next, `CN1CCN(C2=Nc3cc(Cl)ccc3Nc3ccccc32)CC1` [Clozapine]: -7.09 ± 5.8; `O=C1Cc2c([nH]c3ccc(Br)cc23)-c2ccccc2N1` [Kenpaullone]: -40.5 ± 9.6; `Cc1ccc(O)c(N=Nc2ccccc2)n1`: -5.38 ± 0.3.
Turning to `Cc1c(CC(C)(C)C(=O)O)n(Cc2ccc(Cl)cc2)c2ccc(F)cc12`, the “robust z score of cell number” value was -43.8 ± 28.
As to `CC[N+](CC)(CC)CCOc1ccc(/C=C/c2ccccc2)cc1`, the “robust z score of cell number” value is -31.5 ± 5.9.
Still for that read-out and setting: for `CCOC(=O)c1ccc(OC(=O)CCCCCNC(=N)N)cc1` [Gabexate mesylate] the value was 2.65 ± 3.5.
On the same count and under the same terms, next, `CC(=O)NCC(=O)N[C@H](CCC(=O)O)C(=O)O` [N-Acetylglycyl-D-glutamic acid] (Ac-Gly-[dE]-OH): -3.9 ± 16; `Cc1ccc(/C=C2\CNC/C(=C\c3ccc(C)cc3)C2=O)cc1`: -144 ± 110.
Same read-out and setting: next, `CCc1cc(-c2n[nH]c(C)c2-c2ccc3c(c2)OCCO3)c(O)cc1O`: -27.1 ± 5.5.
Consider `CNc1cc(OC)c(C(=O)NC2CCN(Cc3ccccc3)C2C)cc1Cl` (stereo not drawn) [Nemonapride], for which the “robust z score of cell number” value was -35.2 ± 21.
Same read-out and setting: next, `COc1ccc2[nH]cc(CCNC(C)=O)c2c1` [Melatonin]: -4.87 ± 0.57.
Same read-out and setting: for `CCCCN1CCC(CCC(=O)c2cc(Cl)c(N)cc2OC)CC1` the value was -14.4 ± 13; for `CC(C)NCC(O)COc1cccc2ccccc12` (stereo not drawn) [Propranolol hydrochloride], -5.2 ± 10; for `Cn1ccc2cc(NC(=O)Nc3cccnc3)ccc21`, -4.09 ± 1.1.
On the same count and under the same terms, next, `COc1ccc(NC(=O)c2ccc(-c3ccc(-c4noc(C)n4)cc3C)cc2)cc1N1CCN(C)CC1`: -44.8 ± 11.
